These are yes or no findings as the source states them, for the method shown. Binding seen in cells or lysates may run through a third protein. Some results given as binding are weak or reduced against the parent protein; the word gives no strength.
Target: Non-muscle myosin heavy chain IIA (MYH9) (human (endogenous in HCCLM3 and Huh7)) (UniProt P35579)
Assay: co-IP; MYH9-associated co-IP complex from HCCLM3 cells, endogenous proteins; Pierce Co-IP kit, 10 μg antibody or IgG to 5 mg protein overnight; western blotting

Chains of the proteins cited; added tags and fusions are not shown.
UniProt P35579: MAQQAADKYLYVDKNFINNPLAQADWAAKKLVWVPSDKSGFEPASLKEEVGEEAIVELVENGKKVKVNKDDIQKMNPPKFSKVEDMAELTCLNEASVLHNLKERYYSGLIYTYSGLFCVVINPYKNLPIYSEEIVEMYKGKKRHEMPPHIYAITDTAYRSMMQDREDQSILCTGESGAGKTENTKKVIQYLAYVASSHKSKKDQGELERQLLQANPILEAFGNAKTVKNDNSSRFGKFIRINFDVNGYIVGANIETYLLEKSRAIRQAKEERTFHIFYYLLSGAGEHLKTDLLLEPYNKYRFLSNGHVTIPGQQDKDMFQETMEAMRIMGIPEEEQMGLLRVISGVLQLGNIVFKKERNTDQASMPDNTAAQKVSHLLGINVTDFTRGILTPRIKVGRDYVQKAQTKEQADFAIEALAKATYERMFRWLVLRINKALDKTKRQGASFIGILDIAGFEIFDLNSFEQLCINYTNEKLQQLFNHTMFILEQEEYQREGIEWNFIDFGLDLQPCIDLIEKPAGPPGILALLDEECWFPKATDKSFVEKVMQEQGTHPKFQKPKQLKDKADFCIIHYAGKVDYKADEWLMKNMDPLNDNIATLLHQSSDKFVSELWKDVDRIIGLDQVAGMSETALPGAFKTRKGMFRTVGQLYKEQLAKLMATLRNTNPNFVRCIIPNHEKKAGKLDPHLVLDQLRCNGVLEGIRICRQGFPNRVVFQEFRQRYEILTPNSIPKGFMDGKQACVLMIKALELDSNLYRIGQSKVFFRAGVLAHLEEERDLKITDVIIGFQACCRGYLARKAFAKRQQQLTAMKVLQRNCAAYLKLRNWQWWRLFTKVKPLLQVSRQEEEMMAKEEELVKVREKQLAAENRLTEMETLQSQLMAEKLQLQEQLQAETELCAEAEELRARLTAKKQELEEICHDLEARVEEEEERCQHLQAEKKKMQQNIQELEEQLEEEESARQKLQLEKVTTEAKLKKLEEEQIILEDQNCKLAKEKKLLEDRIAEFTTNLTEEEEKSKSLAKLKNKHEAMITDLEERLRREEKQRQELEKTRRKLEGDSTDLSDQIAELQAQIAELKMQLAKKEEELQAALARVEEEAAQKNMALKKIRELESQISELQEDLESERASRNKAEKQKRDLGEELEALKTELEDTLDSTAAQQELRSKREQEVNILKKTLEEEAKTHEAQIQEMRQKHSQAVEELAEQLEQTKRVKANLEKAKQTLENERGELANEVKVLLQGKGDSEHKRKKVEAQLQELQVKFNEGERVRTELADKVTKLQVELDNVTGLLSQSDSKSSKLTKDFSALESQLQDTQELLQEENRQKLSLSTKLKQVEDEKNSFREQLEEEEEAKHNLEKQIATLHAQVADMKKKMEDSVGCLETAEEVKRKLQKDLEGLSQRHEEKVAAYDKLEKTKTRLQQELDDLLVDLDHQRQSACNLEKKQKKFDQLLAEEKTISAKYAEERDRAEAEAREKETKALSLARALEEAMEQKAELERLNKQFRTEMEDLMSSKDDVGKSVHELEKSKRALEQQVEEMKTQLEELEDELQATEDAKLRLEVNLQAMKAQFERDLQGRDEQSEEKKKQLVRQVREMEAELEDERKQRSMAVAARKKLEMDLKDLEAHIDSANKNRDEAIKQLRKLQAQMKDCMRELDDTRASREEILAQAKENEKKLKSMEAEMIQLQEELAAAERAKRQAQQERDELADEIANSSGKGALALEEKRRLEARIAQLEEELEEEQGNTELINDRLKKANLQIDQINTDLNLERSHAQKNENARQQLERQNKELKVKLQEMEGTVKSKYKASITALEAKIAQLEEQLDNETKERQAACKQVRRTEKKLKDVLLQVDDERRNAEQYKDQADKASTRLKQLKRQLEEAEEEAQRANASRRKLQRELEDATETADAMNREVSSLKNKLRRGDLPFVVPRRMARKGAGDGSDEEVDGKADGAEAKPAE
UniProt O15169: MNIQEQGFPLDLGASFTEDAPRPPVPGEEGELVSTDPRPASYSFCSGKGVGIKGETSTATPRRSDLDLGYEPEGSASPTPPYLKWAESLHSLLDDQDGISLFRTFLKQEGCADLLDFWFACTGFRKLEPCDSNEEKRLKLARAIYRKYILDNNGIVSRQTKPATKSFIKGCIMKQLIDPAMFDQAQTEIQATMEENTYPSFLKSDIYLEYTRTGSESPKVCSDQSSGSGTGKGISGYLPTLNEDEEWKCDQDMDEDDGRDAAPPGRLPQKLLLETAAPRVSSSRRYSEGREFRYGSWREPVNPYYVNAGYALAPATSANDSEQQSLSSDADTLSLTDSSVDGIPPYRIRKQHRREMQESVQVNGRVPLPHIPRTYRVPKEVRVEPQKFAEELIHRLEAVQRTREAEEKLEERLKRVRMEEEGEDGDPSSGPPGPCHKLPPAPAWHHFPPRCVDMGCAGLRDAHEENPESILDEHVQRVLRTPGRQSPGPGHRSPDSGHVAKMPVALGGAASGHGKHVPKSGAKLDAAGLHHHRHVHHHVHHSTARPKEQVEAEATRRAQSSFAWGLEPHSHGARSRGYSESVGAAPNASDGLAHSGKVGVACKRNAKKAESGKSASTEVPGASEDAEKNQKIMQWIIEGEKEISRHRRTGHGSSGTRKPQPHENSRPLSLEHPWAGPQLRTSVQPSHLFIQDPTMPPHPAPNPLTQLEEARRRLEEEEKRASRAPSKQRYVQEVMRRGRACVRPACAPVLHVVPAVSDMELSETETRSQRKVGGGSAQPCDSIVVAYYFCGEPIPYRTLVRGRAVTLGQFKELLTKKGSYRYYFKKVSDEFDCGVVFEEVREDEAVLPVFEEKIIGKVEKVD
UniProt P35222: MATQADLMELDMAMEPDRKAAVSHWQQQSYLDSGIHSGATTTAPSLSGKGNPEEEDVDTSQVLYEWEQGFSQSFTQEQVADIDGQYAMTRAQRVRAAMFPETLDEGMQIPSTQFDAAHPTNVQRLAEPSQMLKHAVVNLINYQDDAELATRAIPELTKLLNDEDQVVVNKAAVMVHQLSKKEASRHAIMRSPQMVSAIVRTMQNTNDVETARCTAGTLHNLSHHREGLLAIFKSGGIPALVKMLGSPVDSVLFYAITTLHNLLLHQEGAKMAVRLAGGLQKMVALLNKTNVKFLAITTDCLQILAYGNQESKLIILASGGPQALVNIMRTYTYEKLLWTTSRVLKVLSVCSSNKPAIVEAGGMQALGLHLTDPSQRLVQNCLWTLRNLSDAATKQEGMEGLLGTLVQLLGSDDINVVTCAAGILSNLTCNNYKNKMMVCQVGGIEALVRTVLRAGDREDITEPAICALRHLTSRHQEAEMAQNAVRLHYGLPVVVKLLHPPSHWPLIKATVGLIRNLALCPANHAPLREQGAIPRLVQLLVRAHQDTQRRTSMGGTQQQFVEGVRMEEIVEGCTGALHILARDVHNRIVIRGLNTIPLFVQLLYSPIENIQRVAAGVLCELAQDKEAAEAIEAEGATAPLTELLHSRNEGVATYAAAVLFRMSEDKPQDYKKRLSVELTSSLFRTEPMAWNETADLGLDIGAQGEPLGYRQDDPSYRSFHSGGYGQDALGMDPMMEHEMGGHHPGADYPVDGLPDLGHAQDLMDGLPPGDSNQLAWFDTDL
UniProt P49841: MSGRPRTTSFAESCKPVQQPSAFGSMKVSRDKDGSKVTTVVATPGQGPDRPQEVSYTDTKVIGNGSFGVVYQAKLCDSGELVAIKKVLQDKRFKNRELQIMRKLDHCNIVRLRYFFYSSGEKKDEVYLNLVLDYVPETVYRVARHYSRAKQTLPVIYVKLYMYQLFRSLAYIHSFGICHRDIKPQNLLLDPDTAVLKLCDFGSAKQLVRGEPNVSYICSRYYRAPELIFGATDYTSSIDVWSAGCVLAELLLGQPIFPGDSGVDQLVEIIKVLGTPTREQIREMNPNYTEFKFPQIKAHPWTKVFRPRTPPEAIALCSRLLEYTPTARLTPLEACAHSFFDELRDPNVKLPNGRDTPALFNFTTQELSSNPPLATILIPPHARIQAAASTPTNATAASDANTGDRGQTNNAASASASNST

binding | Substance
binds | AXIN1 (from UniProt O15169 1-862)
binds | β-catenin (from UniProt P35222 1-781)
binds | GSK3β (from UniProt P49841 1-420)
